PubChem BioAssay AID1259425 | University of Nebraska Medical Center, 2018

Screen: 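Find knockdowns that reproduce the gene expression pattern seen when KSR1 is lost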 (primary screen)
Cell system: HCT116 human colon cancer cells
Reagent: siRNA pool against human genes, 50 nM siRNA
Detection: 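After 50 nM siRNA pool, branched-DNA assay measures six marker transcripts per well, minus blank, normalised to the geometric mean of two housekeeping transcripts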
Direction: BNIP3L mRNA: higher = more BNIP3L transcript after knockdown; NDRG1 mRNA: higher = more NDRG1 transcript after knockdown
This is an unselected part of about 14,000 reagents tested. Further read-outs or replicates are left out here. No sequences are given here. The record does not give: the time to read-out.

GYG1 [SID363995140] showed BNIP3L mRNA, set 1 = 0.0727; NDRG1 mRNA, set 1 = 0.12. Knock-down of SRP14 [SID363994275] resulted in: BNIP3L mRNA, set 1 = 0.171; NDRG1 mRNA, set 1 = 0.933. FAM135A [SID364005470] scored BNIP3L mRNA, set 1 = 0.109; NDRG1 mRNA, set 1 = 0.21. With knock-down of VPS4B [SID363995820], the record shows BNIP3L mRNA, set 1 = 0.119; NDRG1 mRNA, set 1 = 0.188. EPN3 [SID364000672] scored BNIP3L mRNA, set 1 = 0.0995; NDRG1 mRNA, set 1 = 0.239. With knock-down of STEAP1 [SID363998325], the record shows BNIP3L mRNA, set 1 = 0.149; NDRG1 mRNA, set 1 = 0.99.

With knock-down of ZAN [SID363994498], the record shows BNIP3L mRNA, set 1 = 0.121; NDRG1 mRNA, set 1 = 0.127. For SSX1 [SID363996529] the deposit lists BNIP3L mRNA, set 1 = 0.109; NDRG1 mRNA, set 1 = 0.296. Against LCMT1 [SID363999795], the values are BNIP3L mRNA, set 1 = 0.0501; NDRG1 mRNA, set 1 = 0.249. Knock-down of RNF114 [SID364001177] gave: BNIP3L mRNA, set 1 = 0.0656; NDRG1 mRNA, set 1 = 0.158. With knock-down of WASHC4 [SID363999391] the results were BNIP3L mRNA, set 1 = 0.169; NDRG1 mRNA, set 1 = 0.826. After knock-down of PITHD1 [SID364001630], the record shows BNIP3L mRNA, set 1 = 0.123; NDRG1 mRNA, set 1 = 1.08.

For DYNC2LI1 [SID363999546], the values are BNIP3L mRNA, set 1 = 0.0573; NDRG1 mRNA, set 1 = 0.393. Against ZDHHC17 [SID363999424], the values are BNIP3L mRNA, set 1 = 0.036; NDRG1 mRNA, set 1 = 0.153. For CWC22 [SID364005077], the entry reads BNIP3L mRNA, set 1 = 0.0731; NDRG1 mRNA, set 1 = 0.0854. Knock-down of DMRTC1 [SID364004300] gave: BNIP3L mRNA, set 1 = 0.129; NDRG1 mRNA, set 1 = 0.421. Knock-down of TSPAN5 [SID363996609] resulted in: BNIP3L mRNA, set 1 = 0.0661; NDRG1 mRNA, set 1 = 0.295. OR2W1 [SID364003481] gave BNIP3L mRNA, set 1 = 0.283; NDRG1 mRNA, set 1 = 0.0714.

6 entries from above in another layout.
{"gene knocked down":"WASHC4","PubChem SID":"SID363999391","BNIP3L mRNA, set 1":0.169,"NDRG1 mRNA, set 1":0.826}
{"gene knocked down":"PITHD1","PubChem SID":"SID364001630","BNIP3L mRNA, set 1":0.123,"NDRG1 mRNA, set 1":1.08}
{"gene knocked down":"DYNC2LI1","PubChem SID":"SID363999546","BNIP3L mRNA, set 1":0.0573,"NDRG1 mRNA, set 1":0.393}
{"gene knocked down":"ZDHHC17","PubChem SID":"SID363999424","BNIP3L mRNA, set 1":0.036,"NDRG1 mRNA, set 1":0.153}
{"gene knocked down":"CWC22","PubChem SID":"SID364005077","BNIP3L mRNA, set 1":0.0731,"NDRG1 mRNA, set 1":0.0854}
{"gene knocked down":"DMRTC1","PubChem SID":"SID364004300","BNIP3L mRNA, set 1":0.129,"NDRG1 mRNA, set 1":0.421}

Continued:
Knock-down of FAM114A2 [SID364001185] resulted in: BNIP3L mRNA, set 1 = 0.129; NDRG1 mRNA, set 1 = 0.18. Depletion of TBX5 [SID363991528] came out at: BNIP3L mRNA, set 1 = 0.069; NDRG1 mRNA, set 1 = 0.315. After knock-down of ARID1B [SID364000334] the results were BNIP3L mRNA, set 1 = 0.169; NDRG1 mRNA, set 1 = 0.283. Silencing of BBLN [SID364002760] resulted in: BNIP3L mRNA, set 1 = 0.089; NDRG1 mRNA, set 1 = 0.205. With knock-down of TFB2M [SID364002420], the record shows BNIP3L mRNA, set 1 = 0.107; NDRG1 mRNA, set 1 = 0.0899. KIAA0040 [SID363999013] showed BNIP3L mRNA, set 1 = 0.085; NDRG1 mRNA, set 1 = 0.114.

Silencing of TIMM8A [SID363995095] came out at: BNIP3L mRNA, set 1 = 0.088; NDRG1 mRNA, set 1 = 0.24. After knock-down of HYAL3 [SID363994632], the record shows BNIP3L mRNA, set 1 = 0.091; NDRG1 mRNA, set 1 = 0.185. POLR3C [SID363997276] scored BNIP3L mRNA, set 1 = 0.0595; NDRG1 mRNA, set 1 = 0.269. After knock-down of SLC25A10 [SID363998085], the record shows BNIP3L mRNA, set 1 = 0.0672; NDRG1 mRNA, set 1 = 0.0581. NECTIN3 [SID363999525] showed BNIP3L mRNA, set 1 = 0.0923; NDRG1 mRNA, set 1 = 0.0909. With knock-down of TMEM204 [SID364002904], the screen gave BNIP3L mRNA, set 1 = 0.195; NDRG1 mRNA, set 1 = 0.197.

With knock-down of SLC68A1 [SID364003060], the record shows BNIP3L mRNA, set 1 = 0.197; NDRG1 mRNA, set 1 = 0.491. Silencing of PAX1 [SID363997018] resulted in: BNIP3L mRNA, set 1 = 0.193; NDRG1 mRNA, set 1 = 0.242. Against PIK3CA [SID363997043] the deposit lists BNIP3L mRNA, set 1 = 0.102; NDRG1 mRNA, set 1 = 0.0903. For APMAP [SID364001728] the deposit lists BNIP3L mRNA, set 1 = 0.175; NDRG1 mRNA, set 1 = 0.0634. After knock-down of HSPA1L [SID363996427], the screen gave BNIP3L mRNA, set 1 = 0.267; NDRG1 mRNA, set 1 = 0.237. After knock-down of TNFRSF14 [SID363994882], the screen gave BNIP3L mRNA, set 1 = 0.136; NDRG1 mRNA, set 1 = 0.216.
